Experimental findings from PubChem BioAssay AID493014 (National Center for Advancing Translational Sciences (NCATS), 2011) are described below.

The experiment is described as follows: qHTS Assay to Find Inhibitors of Chronic Active B-Cell Receptor Signaling. The settings on record: ABC-DLBCL IkBa-CBG/CBR reporter, luminescence ratio (green luciferase fused to IkBa over red control in TMD8 lymphoma cells), 4 h. In a few lines:
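Cell line TMD8 (human ABC DLBCL), stably expressing tet-inducible CBG68-IkBa fusion and CBR; IMDM/0.5% FBS; cpd up to 46 uM; dox induction, 4 h, 37C/5% CO2; dual luminescence; green/red ratio; MG132 control.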

Where [1] appears, read: measured here: CBR red luminescence, cell number.
[2] abbreviates: measured here: IkBa-CBG green luminescence.

The list shows a part of the results. The main result of the screen is listed elsewhere. These columns were measured beside it and carry no call. Compounds called inactive in the main read-out are mostly missing here. The note in brackets gives the kind of curve behind each potency; many fits are weak.

With `COc1ccc(/C=C/c2ccncc2)cc1OC`, the AC50 is, setting by setting: under setting [1], 0.259 µM [rising, full curve, poor fit]; under setting [2], 23.1 µM [falling, partial curve].

`CC(OC(=O)Cn1ccccc1=O)C(=O)Nc1cc(Cl)cc(Cl)c1` (stereo not drawn): the AC50 under setting [1] is 9.2 µM [rising, partial curve].

Regarding `COc1ccccc1/C=C/C(=O)OCC(=O)c1cc(C)n(C)c1C`, the AC50 under setting [1] is 25.9 µM [falling, partial curve, poor fit].

On to `COCCNC(=O)CSc1nc(-c2ccccc2)cs1`, for which the AC50 under setting [1] was 25.1 µM [rising, single point].

As for `Cc1ccc2c(c1)C1(C(=O)N2)N2CCCC2C(C(=O)c2ccc3ccccc3c2)C12C(=O)Nc1ccccc12` (stereo not drawn), the AC50 is 35.5 µM [falling, partial curve, poor fit] under setting [1] and 20 µM [rising, partial curve, poor fit] under setting [2].

Take `COc1ccc(S(=O)(=O)N2CCc3ccccc3C2)cc1`: the AC50 under setting [1] was 6.31 µM [rising, full curve, poor fit].

Regarding `CCOc1ccc(NC(=O)c2nn(C)cc2Br)cc1`, the AC50 under setting [1] was 8.91 µM [falling, partial curve].

For `Cc1nn(-c2ccccc2)c(C)c1/C=C/C(=O)OCC(=O)Nc1ncc(C(F)(F)F)cc1Cl`, the AC50 under setting [1] is 9.2 µM [rising, partial curve, poor fit].

For `Cn1c(=O)c2c(nc(NCc3ccccc3)n2Cc2ccc(F)cc2)n(C)c1=O`, the AC50 runs as follows: under setting [1], 1.64 µM [falling, full curve, poor fit]; under setting [2], 2.91 µM [rising, full curve].

In the case of `CC(=O)Nc1cccc(-c2cc(C)c3cc4c(cc3n2)OCO4)c1`, under setting [1], the AC50 was 6.31 µM [rising, partial curve, poor fit].

Take `COc1cccc(/C=C2\SC(=S)N(CCCC(=O)N3CCCC3)C2=O)c1`: the AC50 under setting [1] is 7.94 µM [falling, partial curve, poor fit].

Turning to `CCCNS(=O)(=O)c1cc(CN2C(=O)c3cccnc3C2=O)ccc1OC`, under setting [1], the half-maximal activity concentration (AC50) is 5.01 µM [falling, single point].

As to `CCN1C(=NCC(C)C)N[C@@H](c2cccc(C(F)(F)F)c2)C(C(=O)OC)=C1C`, the AC50 under setting [1] is 7.94 µM [falling, partial curve].

`CCC1(CC)NC(=O)N(CC(=O)OCC(=O)Nc2sccc2C#N)C1=O`: the AC50 under setting [1] was 35.5 µM [rising, single point].

Take `CC(c1nnc(SCC(=O)N2CC(=O)Nc3ccccc32)n1Cc1ccccc1)N(C)C` (stereo not drawn): the AC50 under setting [1] was 6.51 µM [rising, single point].

For the compound `O=C(NNC(=S)Nc1cccc(C(F)(F)F)c1)c1ccc(Cl)cc1Cl`, the AC50 under setting [1] is 29.1 µM [falling, single point].

As for `COc1cc(/C=N/NC(=S)NCCN2CCOCC2)cc(OC)c1OC`, the AC50 is 29.1 µM [rising, single point] under setting [1] and 8.2 µM [falling, partial curve, poor fit] under setting [2].

Take `O=C(NC1CCCC1)C1=COCCO1`: the AC50 under setting [1] was 2.91 µM [rising, partial curve, poor fit].

Take `COc1ccc(NC(=O)c2cccn(CC=C(C)C)c2=O)cc1`: the AC50 under setting [1] is 20 µM [falling, single point].

With `Cn1c(SC2=CS(=O)(=O)c3ccccc32)nc2ccccc21`, the AC50 under setting [1] was 22.4 µM [falling, partial curve, poor fit].

For `Cc1nc2c(C(F)(F)F)cccc2c2c1CCS2`, the AC50 by setting is: under setting [1], 17.8 µM [rising, partial curve, poor fit]; under setting [2], 10 µM [falling, partial curve].

Turning to `COc1cc(/C=N/Nc2nc(Nc3ccccc3)nc(N3CCCCC3)n2)ccc1OCC(=O)O`, the AC50 under setting [1] is 25.1 µM [falling, single point].

As for `Clc1ccc(CNc2nc(CN3CCOCC3)nc3scc(-c4ccccc4)c23)cc1`, under setting [1], the AC50 was 29.1 µM [falling, single point].

Regarding `C=CCOC(=O)C1=C(C)NC(SCC(N)=O)=C(C#N)C1c1ccc(C)cc1` (stereo not drawn), under setting [1], the half-maximal activity concentration (AC50) was 0.1 µM [rising, full curve, poor fit].

With `Cc1ccc(C(=O)N2CCN(c3ccccc3F)CC2)cc1S(=O)(=O)N1CCOCC1`, the AC50 under setting [1] was 0.316 µM [falling, full curve, poor fit].

Consider `CN1CC(=O)N2C(c3ccc(Cl)cc3)c3[nH]c4ccccc4c3C[C@H]2C1=O` (stereo partly drawn), for which, under setting [1], the AC50 is 22.4 µM [falling, single point].

For `O=C(O)c1cc(N/N=C/c2c(O)ccc3ccccc23)ccc1Cl`, the AC50 under setting [1] was 35.5 µM [falling, single point].

`O=C(NCCc1ccccc1)c1cc(-c2ccco2)on1`: the AC50 under setting [1] is 6.51 µM [falling, full curve].

For the compound `CN(C)S(=O)(=O)c1cccc(NC(=O)CSc2nc3c(cc2C#N)C(=O)CC(C)(C)C3)c1`, under setting [1], the concentration at half-maximal activity (AC50) was 18.4 µM [falling, partial curve].

Consider `CSc1ccccc1NC(=O)CN(C)CC(=O)Nc1ccc(N2CCOCC2)cc1`, for which, under setting [1], the AC50 was 15.8 µM [rising, partial curve, poor fit].

In the case of `O=C(/C(=C/c1ccccc1)n1cncn1)c1ccc(Cl)cc1Cl`, the AC50 under setting [1] was 18.4 µM [falling, single point].

As for `Cc1nnc(SCC(=O)Nc2ccc(O)cc2)c2ccccc12`, under setting [1], the AC50 was 11.2 µM [falling, partial curve].

Consider `Cc1cc(C(=O)CCC(=O)Nc2ncccc2C)c(C)s1`, for which, under setting [1], the AC50 was 29.1 µM [falling, partial curve, poor fit].

Turning to `Cn1c(SCC(=O)Nc2nc3ccccc3s2)ncc(C(=O)Nc2ccccc2)c1=O`, under setting [1], the half-maximal activity concentration (AC50) was 22.4 µM [falling, partial curve, poor fit].

Take `CC1CCCCN1S(=O)(=O)c1ccc(C(=O)Nc2sccc2C(N)=O)cc1` (stereo not drawn): the AC50 under setting [1] was 18.4 µM [falling, single point].

As for `COC(=O)Nc1nc(-c2cc(Cl)ccc2Cl)cs1`, the AC50 under setting [1] was 5.62 µM [rising, partial curve, poor fit].

With `O=C(Nc1ccc2c(c1)OCCO2)C1CCCN(S(=O)(=O)Cc2ccccc2)C1` (stereo not drawn), under setting [1], the AC50 is 25.9 µM [falling, partial curve, poor fit].

As to `CCc1nnc(NC(=O)c2ccc(S(=O)(=O)N3CCCC3)cc2)s1`, under setting [1], the AC50 is 14.1 µM [falling, partial curve, poor fit].
